Results from patent publication EP3959993B1, “METHOD FOR SOLVENT FREE PRODUCTION OF AROMA CONCENTRATES” (Symrise AG, priority 2020, dated 2022).
Where two headings read alike, the source gives them in different places. At least one read-out could not be matched to a standard name with certainty. At least one structure is not confirmed: it was looked up by name or label, or the drawing left a doubt.

Assay: Second oil phase obtained by adding NaCl to the water phase (Example 4)
Type: physicochemical
Conditions: for Recovery oil phase I: 0% Salt
Method: Cross linked polystyrene was used as adsorbent material. The volume flux for loading the adsorbent was 300 ml/min.
The adsorbent was heated to 150 °C, the temperature of the applied water steam was 160 °C.
The water steam flux was 10 g/min and was applied for 100 min.
The oil and water phases were separated.
A second oil phase was separated and was collected.

[1] = 83.3% Salt (NaCl, based on theoretical solubility in water)

Row | Structure (SMILES) | Recovery oil phase I | Recovery oil phase II [1] | Recovery oil phase II
1 | CCOC(=O)C(C)CC (stereo not shown) [ethyl 2-methyl butyrate] | 66,1% |  | 
2 | O=Cc1ccccc1 [benzaldehyde] | 27,0% | 53,8% | 
3 | CCC(C)CO (stereo not shown) [2-methyl butanol] | 30,8% | 51,9% | 
4 | CCCCCC(=O)O [caproic acid] | 43,5% |  | 54,4%
